From paper PMC4159138, “Fission Yeast Pxd1 Promotes Proper DNA Repair by Activating Rad16^XPF and Inhibiting Dna2” (PLoS Biology, 2014)

Protein sequences, listed by entry. Tags and fused reporters are not part of them. Lines headed by an entry give the natural chain unless they say otherwise; changes in a name come on top.
UniProt Q9UUA8: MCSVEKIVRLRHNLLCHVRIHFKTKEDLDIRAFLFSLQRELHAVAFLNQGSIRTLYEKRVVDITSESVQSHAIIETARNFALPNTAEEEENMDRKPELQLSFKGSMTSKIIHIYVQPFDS
UniProt O94542: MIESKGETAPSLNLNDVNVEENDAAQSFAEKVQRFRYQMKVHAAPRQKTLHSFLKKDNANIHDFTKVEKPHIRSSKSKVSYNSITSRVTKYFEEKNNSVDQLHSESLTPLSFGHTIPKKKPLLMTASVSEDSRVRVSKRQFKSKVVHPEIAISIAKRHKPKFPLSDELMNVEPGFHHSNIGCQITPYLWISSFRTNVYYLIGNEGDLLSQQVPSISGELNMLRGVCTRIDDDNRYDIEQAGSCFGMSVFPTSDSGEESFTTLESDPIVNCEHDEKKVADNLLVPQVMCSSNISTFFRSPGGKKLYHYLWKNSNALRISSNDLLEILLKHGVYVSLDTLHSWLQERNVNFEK

Tests used:
[1] = target: Saw1 tagged with a YFP-FLAG-His6 (YFH) tag (S. pombe) (UniProt Q9UUA8); experiment: affinity purification with mass spectrometry; tagged bait (Saw1 with a YFP-FLAG-His6 tag, purified using anti-YFP beads; Pxd1 as bait) from fission yeast, co-purified proteins analysed by mass spectrometry
[2] = target: Pxd1 (SPCC1322.02) used as bait for AP-MS (S. pombe) (UniProt O94542); experiment: as above

Binder	binding [1]	binding [2]
Rad16, untagged, endogenous (protein, UniProt P36617 1-877) METKVHLPLAYQQQVFNELIEEDGLCVIAPGLSLLQIAANVLSYFAVPGSLLLLVGANVDDIELIQHEMESHLEKKLITVNTETMSVDKREKSYLEGGIFAITSRILVMDLLTKIIPTEKITGIVLLHADRVVSTGTVAFIMRLYRETNKTGFIKAFSDDPEQFLMGINALSHCLRCLFLRHVFIYPRFHVVVAESLEKSPANVVELNVNLSDSQKTIQSCLLTCIESTMRELRRLNSAYLDMEDWNIESALHRSFDVIVRRQLDSVWHRVSPKTKQLVGDLSTLKFLLSALVCYDCVSFLKLLDTLVLSVNVSSYPSNAQPSPWLMLDAANKMIRVARDRVYKESEGPNMDAIPILEEQPKWSVLQDVLNEVCHETMLADTDAETSNNSIMIMCADERTCLQLRDYLSTVTYDNKDSLKNMNSKLVDYFQWREQYRKMSKSIKKPEPSKEREASNTTSRKGVPPSKRRRVRGGNNATSRTTSDNTDANDSFSRDLRLEKILLSHLSKRYEPEVGNDAFEVIDDFNSIYIYSYNGERDELVLNNLRPRYVIMFDSDPNFIRRVEVYKATYPKRSLRVYFMYYGGSIEEQKYLFSVRREKDSFSRLIKERSNMAIVLTADSERFESQESKFLRNVNTRIAGGGQLSITNEKPRVIVDLREFRSSLPSILHGNNFSVIPCQLLVGDYILSPKICVERKSIRDLIQSLSNGRLYSQCEAMTEYYEIPVLLIEFEQHQSFTSPPFSDLSSEIGKNDVQSKLVLLTLSFPNLRIVWSSSAYVTSIIFQDLKAMEQEPDPASAASIGLEAGQDSTNTYNQAPLDLLMGLPYITMKNYRNVFYGGVKDIQEASETSERKWSELIGPEAGRRLYSFFRKQLKDYE	binds	binds
Cdc24, untagged, endogenous (protein, UniProt O75004 1-501) MDFPGLIKKIKEDLENRLVEKSKQPAFTDYWLINKTISLLKEYPSGFSYPILINEIELACSERNKLDNVFSSLEWLTKSDAVIYLEDQFHFHCYDYYYTPIPSLKLKDSEENTCEMILHSSFYLLFHEPFNILKGSTLRFSQSRIHQKWYLRKQIRFLPTTSFVPVLQYAASKSFVKSMVESTEHEFFQIRDITISKSDQGVKRITVELGRIISLDKKGAFLIDNNTNFIHFSGTYHDFPKLLDKQQYLLIPFWSTVWEGSTNWQDGMIGILVILSENDFEEKKCDSWQVGRLAAVNSNFLVLDNNGQRVKILYSNSQKHYFKDTYIGDLLCISPINHSSDNLSDYSCVSDTTTEILSNLENPLSSNFLRNDLCKFSNLFSGVSGHLKIQPLTLVITGFVANLTRQSDLNTSLVLPEVNPLTAKMEVIDCLRNSFWAALRPNCVSYFASMISGFKELFQKEMEFPIYLDLKSYKLGFHWCDIYVDSEHNCHIQKINSLPCE	–	binds
Swi10, untagged, endogenous (protein, UniProt Q06182 1-252) MSDIDDEEFEQLAVSALEEVEKKAGFAQQPTPQKVSRVTAHSILVNPRQKGNPLLPHVRNVPWEYTDIVPDFVMGTGICSLFLSLKYHHLHPEYIYSRISKLGKSYNLRILLILVDVENHQASIQELVKTSIVNQYTLILAWSSEEAARYLETYKAYENMSPALIMEKPSTDYLSQVQSFLTSIRGINKSDSLSLLSKFGSLERALVASRDELEQLEGWGPTKVNRFLEAVQQPFMSHSTIKRPEAINLKQT	binds	binds
Dna2, untagged, endogenous (protein, UniProt Q9URU2 1-1397) MFNDQSKTTSSVKGICATTDNNHGNLKKTNSTPFRKNYLLNGRTKLKLENFAYNASTEISSPKISEKKHSSLPIKRKNTFNESSTSFSPFTKAHKEITDDLKPDKSFTRKSDLNSQDMPVCFQETSKDLCRSSSTQHLLDHQTTDSTIIDMKPVSTNSKSDVFTLYTDETVLLRRCASDNKPLINNNLSSSNVSENQSRSFGSYDEVKNQGNNLHKVPSLVSIIRNARSSEQSRIAANSSCLLKGSDTEIDEDDFALEAEDLAALDSLERQYSQLPNSTVTASAKDIEKTAKVNHVGGDLQSYCSATKASDATINEEPVNLALDKACNSLPDINSDFIDDWDDSCDGCTPGELCEFSSEYTVLEVHEDFIFHEGNHFRQLKLILEANDILHQLFLRGDWTETSIFVGDSIRVEATFDKDNTAIVDNDKGLIIIHPKILMSATAVASSFPCLRKAVISDRVGIYGPPTKAMVTGNILHDFFQHALYRGIDALENVDINLETSIKTYISDIYFADLSLDEIREELDARLPLLKSIVERYLISKKNDNNNESIHISRLLDIEESIWSPRFGLKGNIDATVEVVLTEKPESSSTLTLPLELKTGRYVDNISHFAQSLLYTLLISDRYGINTNQALLCYLENSTIKNLVASNSQLRGLIMTRNSLAQHNFRRSLPEMISNRKICDHCSLVSECLFFQKMSDKGVANSNGLTESWNEWMREVKDEDLEFYKKWEKLLNQEERLLLLKRGDVLTFDTEELEAYGKTLYPLYITKEDIVCLEIDDRVFHYKFAFLNDNGYPRNFLHSGFSVGERVFISDEHGHWSLAKGHIVHIQDSCIEVRTRHRLHIPWLKMPNFDFKKNQVFFGNYEDSKLSFIGSNHTRYRIDKDEFSSGIASIRGTLMSSVLPDAPLIIRDMIIRLKPPKFCNSALIDPEFLKCLNEDQITALKKCHAAEHYSLILGMPGTGKTTTISSLIRSLLAKKKKILLTSFTHLAVDNILIKLKGCDSTIVRLGSPHKIHPLVKEFCLTEGTTFDDLASLKHFYEDPQIVACSSLGVYHSIFNKRKFDYCIIDEASQIPLPICLGPLQLAEKFVLVGDHYQLPPLVKNSRTSKDGLSLSLFKLLSEKHPEAVTTLRLQYRMNEDINSLSSELIYGGNLVCGSKTISQKKLILPKAHLSDGLPDSSSSLHWVNKLINPSHSVIFFNTDDILGVESKTNNILENHTEAFLIEQAVSSFLERGVKQSSIGIISIYKSQVELLSKNLKSFTEIEINTVDRYQGRDKDIILISFVRSNSKNLVGELLRDWHRLNVALSRAKVKCIMFGSLSTLSSSNIVSHLLKLLEKNKWIFTLNENDIATKFDENSSPIKDCSQVATTNNAKVIIRKNQRFFNSDNLCEKAILPQLEF	–	binds

Results are given in words; binding and its absence hold for the method and conditions named. In cells and extracts the contact can be indirect. These calls come from enrichment with a bait or labelling near it, and not all partners need be listed. Sequences can lack the tags named with a protein.
